Measurements reported in patent US5654273A (Children's Medical Center Corporation, priority 1994, dated 1997).
Where no end group is shown, it is not given here.

Assay: peptide made by a vendor
Conditions: whole synthesis, RP-HPLC and mass spectrometry

For RRRPRPPYLPRPRPPPFFPPRLPPRIPPGFPPRFPPRFP, the “purity (crude or final not stated)” value was 96%.
